Laboratory results taken from PubChem BioAssay AID2685 (National Center for Advancing Translational Sciences (NCATS), 2010).
The list shows a part of the results. These are further read-outs of the screen, such as a control signal, another cell line or another target. No call is given for them. The list favours compounds with an active or inconclusive main result. The note in brackets gives the kind of curve behind each potency; many fits are weak.

Test: qHTS Assay for Lipid Storage Modulators in Drosophila S3 Cells;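 for cell number change: cells counted by Cell Tracker Red CMTPX staining in the red channel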
Conditions: BODIPY lipid droplet fluorescence, 18-24 h; for cell number change: measured here: cell count max response, cells fed with added oleic acid
Outline: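 Laser-scanning cytometry quantifies lipid droplet accumulation (500–530 nm total intensity; droplet/cell object ratio) in oleic acid-fed (400 uM added) Drosophila S3 cells treated with a concentration series. 20 uM Triacsin C defined 100% inhibition.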

[1] = measured here: lipid fluorescence (Fed channel) AC50, cells fed with added oleic acid
[2] = measured here: cell number channel AC50, cells fed with added oleic acid

Structure (SMILES)	cell number change	AC50 [1]	AC50 [2]
COc1cc(=O)[nH]c(SCc2c(F)c(F)c(F)c(F)c2F)n1	-25.2%	23.1 µM [rising, single point]	–
Cc1cccc(COCC(Cc2ccccc2)N2CCN(C(=O)c3cc(Cl)cc(Cl)c3)CCC2=O)c1 (configuration not stated)	-0.234%	8.2 µM [rising, partial curve]	–
CCOc1ccc(-c2nc(C#N)c(NC3CC3)o2)cc1	–	0.92 µM [rising, full curve]	0.259 µM [rising, full curve]
Clc1ccc(Cn2ccc(-c3ccc4c(c3)OCO4)n2)cc1Cl	16.9%	20.6 µM [rising, single point]	–
COCC1CCCCN1Cc1cn[nH]c1-c1ccc(OC)cc1OC (configuration not stated)	11.6%	32.6 µM [rising, partial curve, poor fit]	–
CCCCNc1c(-c2ccc(OC)c(Sc3ccc(OC)cc3)c2)nc2ccccn12	-44%	20.6 µM [falling, single point]	29.1 µM [falling, single point]
CCN1C(=O)[C@H]2[C@@H](c3ccc(OC)cc3)N3C(=O)CN(Cc4ccccc4)C(=O)[C@@]3(C)[C@H]2C1=O	6.29%	29.1 µM [rising, single point]	–
CC(=O)OC1CC(c2cc(C(C)(C)C)c(O)c(C(C)(C)C)c2)=NO1 (configuration not stated)	20.7%	1.64 µM [rising, partial curve]	–
NC(=O)c1cccnc1Nc1cccc(F)c1	5.84%	0.206 µM [rising, full curve, poor fit]	–
COc1ccc(NC(=O)CSc2nc3ccccc3c(=O)n2C)cc1	-12.8%	–	–
CC(=O)c1ccc(NC(=O)C2CCCN(C(=O)c3ccc(Cl)cc3)C2)cc1 (configuration not stated)	22.8%	–	–
COc1cc(/C=C(\NC(=O)c2ccccc2)C(=O)NC(C(=O)O)c2ccccc2)cc(OC)c1OC (configuration not stated)	25.2%	29.1 µM [rising, single point]	–
Cc1occc1-c1nnc(SCCNCCO)o1	-35%	2.91 µM [falling, full curve]	2.59 µM [falling, full curve, poor fit]
Cc1cc(OCc2cc(C(=O)N(C)Cc3nonc3C)no2)cc(C)c1Cl	12.8%	18.4 µM [rising, partial curve]	–
Cc1ccc(OCCNC(=O)C2CC(=O)N(c3ccc(C)cc3)C2)cc1 (configuration not stated)	75.3%	–	14.6 µM [rising, partial curve, poor fit]
Nc1nc2nccc(-c3ccccn3)n2n1	-24%	–	–
COc1cc(/C=C(\C#N)c2nc3ccccc3[nH]2)cc(Br)c1OCc1ccc(F)cc1	–	4.61 µM [falling, full curve, poor fit]	4.11 µM [falling, partial curve, poor fit]
COc1cc2c(cc1OC)CN(C(=O)CCNS(=O)(=O)c1ccc(Br)cc1)CC2	45.8%	16.4 µM [rising, partial curve]	25.9 µM [rising, single point]
Nc1nncn1C(=O)c1ccccc1Cl	-3.01%	1.64 µM [falling, partial curve]	0.103 µM [falling, full curve, poor fit]
NS(=O)(=O)c1ccc(CCn2c(=S)[nH]c3ccc(F)cc3c2=O)cc1	4.09%	–	–

Of the compounds above, 2 have a cyano group.
Structure (SMILES)	cell number change	AC50 [1]	AC50 [2]
CCOc1ccc(-c2nc(C#N)c(NC3CC3)o2)cc1	–	0.92 µM [rising, full curve]	0.259 µM [rising, full curve]
COc1cc(/C=C(\C#N)c2nc3ccccc3[nH]2)cc(Br)c1OCc1ccc(F)cc1	–	4.61 µM [falling, full curve, poor fit]	4.11 µM [falling, partial curve, poor fit]

(listing goes on)

Structure (SMILES)	cell number change	AC50 [1]	AC50 [2]
Cc1ccc(-c2nc(P(=O)(c3ccccc3)c3ccccc3)c(N3CCOCC3)o2)cc1	-1.73%	–	–
CC(C)(C)OC(=O)NN=C(c1ccc(O)cc1)c1ccc(O)cc1	12.3%	25.9 µM [rising, single point]	–
CCCc1nnc(NC(=O)CC(=O)Nc2ccccc2C(=O)O)s1	–	0.092 µM [rising, single point]	–
C=C(C)CSCc1nc2ccccc2[nH]1	2.21%	8.2 µM [falling, partial curve]	–
Cn1cc(Cl)c(C(=O)NC2CCCCCC2)n1	108%	20.6 µM [rising, partial curve, poor fit]	23.1 µM [rising, partial curve]
CC(C)(C)c1cn(-c2ccccc2)c(=S)[nH]1	13.7%	20.6 µM [rising, partial curve]	–
Cc1cc(NS(=O)(=O)c2cccs2)no1	0.623%	20.6 µM [falling, partial curve]	–
COc1cccc(/C(O)=C2/C(=O)C(=O)N(CCN(C)C)C2c2ccccn2)c1 (configuration not stated)	-28.8%	0.366 µM [falling, full curve]	0.00731 µM [falling, full curve, poor fit]
CCC(C(=O)Nc1nccs1)c1ccccc1 (configuration not stated)	-11.2%	–	–
O=C(O)c1ccc(C(=O)Nc2cccc(NC(=O)C3CCCO3)c2)cc1 (configuration not stated)	-65.4%	0.116 µM [falling, full curve]	29.1 µM [falling, single point]
CCOC(=O)C[N+](CC)(CC)CC#Cc1ccccc1	9.21%	0.146 µM [falling, full curve, poor fit]	0.146 µM [falling, full curve]
O=C(NC(=S)Nc1cc(Cl)ccc1O)c1cccc(Br)c1	-41%	20.6 µM [falling, partial curve]	13 µM [falling, single point]
COc1ccc2nc(SCC(=O)NCc3ccc(F)cc3)[nH]c2c1	14.1%	–	–
O=C(CCCN1C(=O)/C(=C/c2ccccc2Cl)SC1=S)NNC(=O)c1ccccc1	-11.4%	32.6 µM [falling, single point]	–
COC(=O)c1ccc(NC(=O)CN(C2CCCCC2)S(C)(=O)=O)cc1	8.72%	–	–
C=CCn1c(SCc2cccc(OC)c2)nnc1-c1ccncc1	-2.38%	29.1 µM [falling, single point]	–
Cc1cccn2c(=O)nc(SCC(=O)N3CCC(C)CC3)nc12	29.7%	–	–
Cc1c(NC(=O)c2ccc3c(c2)OCO3)c(=O)n(-c2ccccc2)n1C	-5.34%	29.1 µM [falling, single point]	–
Cc1ccc(O)c(C2=NCCNC(C(F)(F)F)=C2)c1	0.947%	4.11 µM [rising, full curve, poor fit]	–
